Experimental data from PMC7295765.
No constants are given. Whether binding was seen depends on the method and setting. In cells and extracts the contact can be indirect. Some entries that bind do so weakly or less than the wild type.

The chains behind the UniProt entries cited, without tags or fusion partners.
UniProt P05556: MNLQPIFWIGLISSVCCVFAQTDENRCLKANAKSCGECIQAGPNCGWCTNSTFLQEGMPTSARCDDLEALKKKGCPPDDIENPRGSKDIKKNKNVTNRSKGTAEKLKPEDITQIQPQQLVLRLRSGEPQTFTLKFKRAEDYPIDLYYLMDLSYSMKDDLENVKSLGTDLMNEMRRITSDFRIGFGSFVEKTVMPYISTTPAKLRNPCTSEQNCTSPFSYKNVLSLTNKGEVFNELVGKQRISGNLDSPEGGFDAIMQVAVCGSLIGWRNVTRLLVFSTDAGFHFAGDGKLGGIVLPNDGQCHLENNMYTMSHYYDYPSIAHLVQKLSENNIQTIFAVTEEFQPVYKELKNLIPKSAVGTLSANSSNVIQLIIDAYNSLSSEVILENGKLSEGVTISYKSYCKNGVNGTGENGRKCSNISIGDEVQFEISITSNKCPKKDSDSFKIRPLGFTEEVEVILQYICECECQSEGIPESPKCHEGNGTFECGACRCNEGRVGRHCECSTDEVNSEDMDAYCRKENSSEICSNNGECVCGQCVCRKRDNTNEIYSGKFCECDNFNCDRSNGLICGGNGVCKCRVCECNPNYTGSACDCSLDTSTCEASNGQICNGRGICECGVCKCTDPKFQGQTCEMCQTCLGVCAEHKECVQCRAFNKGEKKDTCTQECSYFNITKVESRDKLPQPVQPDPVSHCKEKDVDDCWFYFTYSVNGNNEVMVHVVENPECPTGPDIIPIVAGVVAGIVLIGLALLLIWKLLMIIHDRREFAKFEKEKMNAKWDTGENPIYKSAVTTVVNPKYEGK

Molecular target: Integrin β1 (human (endogenous in T4121 and T387 GSCs)) (UniProt P05556)
Assay: co-IP; lysates of T4121 or T387 GSCs transduced with WISP1 overexpression lentivirus; IP lysis buffer (50 mM Tris-HCl pH 7.8, 137 mM NaCl, 1 mM EDTA, 1% Triton X-100, 10% glycerol); IP with anti-Integrin α6 or anti-Integrin β1 antibody or isotype IgG overnight at 4 °C, protein A/G Plus agarose; immunoblot with anti-WISP1, anti-Integrin α6 and anti-Integrin β1

binding: binds
B1: Wnt-induced signaling protein 1 (WISP1) (ligand, UniProt O95388 23-367)
chain: TALSPAPTTMDFTPAPLEDTSSRPQFCKWPCECPPSPPRCPLGVSLITDGCECCKMCAQQLGDNCTEAAICDPHRGLYCDYSGDRPRYAIGVCAQVVGVGCVLDGVRYNNGQSFQPNCKYNCTCIDGAVGCTPLCLRVRPPRLWCPHPRRVSIPGHCCEQWVCEDDAKRPRKTAPRDTGAFDAVGEVEAWHRNCIAYTSPWSPCSTSCGLGVSTRISNVNAQCWPEQESRLCNLRPCDVDIHTLIKAGKKCLAVYQPEASMNFTLAGCISTRSYQPKYCGVCMDNRCCIPYKSKTIDVSFQCPDGLGFSRQVLWINACFCNLSCRNPNDIFADLESYPDFSEIAN
